Test results as given in article PMC3888430.
Results are given in words; binding and its absence hold for the method and conditions named. Binding seen in cells or lysates may run through a third protein. Some results given as binding are weak or reduced against the parent protein; the word gives no strength.

Protein sequences, listed by entry. Tags and fused reporters are not part of them.
UniProt Q07832: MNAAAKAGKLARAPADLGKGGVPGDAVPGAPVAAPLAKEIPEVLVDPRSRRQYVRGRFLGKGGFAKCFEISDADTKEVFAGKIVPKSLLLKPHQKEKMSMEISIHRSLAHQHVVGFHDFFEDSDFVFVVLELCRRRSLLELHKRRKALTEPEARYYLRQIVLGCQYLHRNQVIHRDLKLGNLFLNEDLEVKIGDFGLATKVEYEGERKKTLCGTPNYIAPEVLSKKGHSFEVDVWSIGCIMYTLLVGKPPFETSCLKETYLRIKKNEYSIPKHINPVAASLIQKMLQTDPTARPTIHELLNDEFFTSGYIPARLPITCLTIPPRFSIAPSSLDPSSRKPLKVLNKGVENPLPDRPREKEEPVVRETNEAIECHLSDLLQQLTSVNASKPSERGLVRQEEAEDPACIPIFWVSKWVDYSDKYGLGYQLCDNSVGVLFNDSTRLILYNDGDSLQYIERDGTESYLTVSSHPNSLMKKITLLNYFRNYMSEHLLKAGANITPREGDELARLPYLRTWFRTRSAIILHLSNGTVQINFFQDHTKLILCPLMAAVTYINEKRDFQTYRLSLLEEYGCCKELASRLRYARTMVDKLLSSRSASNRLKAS

Biological target: T1, sorcin, endogenous in 3T3-L1 fibroblasts (mouse (endogenous in 3T3-L1)) (UniProt Q6P069)
T1 sequence: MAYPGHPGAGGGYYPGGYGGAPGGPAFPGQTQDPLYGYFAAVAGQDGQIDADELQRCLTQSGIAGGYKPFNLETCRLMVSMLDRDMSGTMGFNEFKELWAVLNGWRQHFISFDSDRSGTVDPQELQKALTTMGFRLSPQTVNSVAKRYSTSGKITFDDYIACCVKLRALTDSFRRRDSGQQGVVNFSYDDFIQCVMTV
Test: co-IP; 3T3-L1 fibroblast lysate in buffer A (20 mM HEPES pH 7.4, 0.25 M sucrose, 1 mM EDTA) with 1% Nonidet P-40; 3 h at 4°C with rabbit α-sorcin or rabbit α-PLK1, protein G-Sepharose; western blot

binding: binds
Substance: Polo-like kinase 1 (PLK1), endogenous in 3T3-L1 fibroblasts (from UniProt Q07832 1-603) (enzyme)
